Consider 38 targets from the supplement of paper PMC12819154, “High-throughput peptide-centric local stability assay extends protein–ligand identification to membrane proteins, tissues and bacteria” (Nature Structural & Molecular Biology, 2025).

The chains behind the UniProt entries cited, without tags or fusion partners. Where a name states a change or a piece, a line headed by the entry shows the natural chain unless it says otherwise.
UniProt Q5TEC3: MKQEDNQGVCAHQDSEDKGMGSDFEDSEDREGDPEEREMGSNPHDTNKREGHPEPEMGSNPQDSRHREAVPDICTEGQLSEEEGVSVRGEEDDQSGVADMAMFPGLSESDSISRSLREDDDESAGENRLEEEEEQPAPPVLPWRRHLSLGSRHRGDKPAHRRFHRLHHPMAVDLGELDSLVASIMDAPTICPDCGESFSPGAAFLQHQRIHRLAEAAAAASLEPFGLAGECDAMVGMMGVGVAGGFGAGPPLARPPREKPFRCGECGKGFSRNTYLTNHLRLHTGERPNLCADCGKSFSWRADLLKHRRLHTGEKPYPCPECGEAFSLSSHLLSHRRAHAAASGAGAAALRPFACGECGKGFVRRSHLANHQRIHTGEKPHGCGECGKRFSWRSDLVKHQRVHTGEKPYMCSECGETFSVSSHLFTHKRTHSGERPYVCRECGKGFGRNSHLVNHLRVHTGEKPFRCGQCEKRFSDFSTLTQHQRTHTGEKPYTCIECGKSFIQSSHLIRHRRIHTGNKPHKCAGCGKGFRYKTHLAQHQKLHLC
UniProt Q562E7: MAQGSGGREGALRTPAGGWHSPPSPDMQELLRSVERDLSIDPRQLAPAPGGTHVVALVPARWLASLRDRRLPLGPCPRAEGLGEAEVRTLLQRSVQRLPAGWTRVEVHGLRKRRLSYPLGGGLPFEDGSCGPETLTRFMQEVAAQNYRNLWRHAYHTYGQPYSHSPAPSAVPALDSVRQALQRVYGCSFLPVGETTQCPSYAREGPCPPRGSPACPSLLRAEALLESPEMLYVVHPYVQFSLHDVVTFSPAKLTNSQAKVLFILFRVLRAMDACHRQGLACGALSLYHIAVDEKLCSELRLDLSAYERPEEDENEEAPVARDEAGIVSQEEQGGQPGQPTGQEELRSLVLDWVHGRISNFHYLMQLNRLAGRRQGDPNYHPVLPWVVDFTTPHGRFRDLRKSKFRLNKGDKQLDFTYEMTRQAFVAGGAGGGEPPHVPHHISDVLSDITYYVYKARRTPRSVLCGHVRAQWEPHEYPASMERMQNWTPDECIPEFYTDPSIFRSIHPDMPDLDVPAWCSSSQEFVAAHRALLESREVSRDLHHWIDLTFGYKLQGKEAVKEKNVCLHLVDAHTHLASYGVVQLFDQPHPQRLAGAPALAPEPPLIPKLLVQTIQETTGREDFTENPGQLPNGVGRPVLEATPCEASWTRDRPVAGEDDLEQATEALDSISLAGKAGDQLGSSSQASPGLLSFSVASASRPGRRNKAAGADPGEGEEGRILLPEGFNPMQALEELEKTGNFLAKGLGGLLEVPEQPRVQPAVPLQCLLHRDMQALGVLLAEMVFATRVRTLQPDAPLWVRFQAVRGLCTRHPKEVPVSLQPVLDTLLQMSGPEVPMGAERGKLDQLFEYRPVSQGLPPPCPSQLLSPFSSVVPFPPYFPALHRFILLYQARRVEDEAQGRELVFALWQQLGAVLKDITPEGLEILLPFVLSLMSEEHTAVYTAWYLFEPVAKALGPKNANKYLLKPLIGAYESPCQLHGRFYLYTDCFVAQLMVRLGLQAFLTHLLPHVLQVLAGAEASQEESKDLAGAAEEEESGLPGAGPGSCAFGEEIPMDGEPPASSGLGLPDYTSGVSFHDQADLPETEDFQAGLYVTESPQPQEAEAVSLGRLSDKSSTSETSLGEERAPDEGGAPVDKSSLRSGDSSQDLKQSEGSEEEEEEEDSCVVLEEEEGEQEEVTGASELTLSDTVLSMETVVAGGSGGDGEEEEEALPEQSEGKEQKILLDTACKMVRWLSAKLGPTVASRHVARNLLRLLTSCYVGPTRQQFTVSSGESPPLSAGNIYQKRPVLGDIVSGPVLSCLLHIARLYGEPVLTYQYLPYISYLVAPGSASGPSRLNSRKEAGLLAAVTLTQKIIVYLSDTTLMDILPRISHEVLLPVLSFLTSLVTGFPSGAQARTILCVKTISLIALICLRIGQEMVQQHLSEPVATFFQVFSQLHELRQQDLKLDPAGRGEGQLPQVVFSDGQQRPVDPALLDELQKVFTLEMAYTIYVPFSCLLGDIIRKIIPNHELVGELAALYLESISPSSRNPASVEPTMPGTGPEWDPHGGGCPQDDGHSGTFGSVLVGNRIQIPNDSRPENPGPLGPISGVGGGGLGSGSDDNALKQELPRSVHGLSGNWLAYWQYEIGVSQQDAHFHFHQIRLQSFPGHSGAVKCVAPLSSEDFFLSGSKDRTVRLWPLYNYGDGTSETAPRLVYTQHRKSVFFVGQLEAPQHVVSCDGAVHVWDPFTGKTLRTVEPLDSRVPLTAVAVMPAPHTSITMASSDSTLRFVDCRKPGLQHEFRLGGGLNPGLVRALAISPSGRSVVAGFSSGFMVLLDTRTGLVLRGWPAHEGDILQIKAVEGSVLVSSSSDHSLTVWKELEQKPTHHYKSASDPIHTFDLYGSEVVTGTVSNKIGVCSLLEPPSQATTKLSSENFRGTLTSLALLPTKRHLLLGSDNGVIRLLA
UniProt Q5FWF6: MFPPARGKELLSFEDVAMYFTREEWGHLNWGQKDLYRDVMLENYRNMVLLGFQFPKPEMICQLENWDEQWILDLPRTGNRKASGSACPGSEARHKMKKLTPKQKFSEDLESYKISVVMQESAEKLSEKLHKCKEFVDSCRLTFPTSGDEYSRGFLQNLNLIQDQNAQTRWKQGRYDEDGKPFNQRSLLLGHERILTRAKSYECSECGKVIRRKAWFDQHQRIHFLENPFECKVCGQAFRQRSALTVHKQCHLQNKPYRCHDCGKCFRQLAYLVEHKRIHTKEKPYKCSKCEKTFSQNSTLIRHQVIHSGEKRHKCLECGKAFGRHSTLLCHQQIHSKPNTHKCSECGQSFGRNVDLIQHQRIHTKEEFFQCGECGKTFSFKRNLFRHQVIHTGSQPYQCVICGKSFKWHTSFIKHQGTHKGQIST
UniProt Q5JTJ3: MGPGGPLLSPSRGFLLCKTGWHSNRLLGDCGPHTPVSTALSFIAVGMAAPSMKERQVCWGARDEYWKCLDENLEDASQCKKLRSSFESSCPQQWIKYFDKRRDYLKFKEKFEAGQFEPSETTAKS
UniProt Q5TA45, whole entry: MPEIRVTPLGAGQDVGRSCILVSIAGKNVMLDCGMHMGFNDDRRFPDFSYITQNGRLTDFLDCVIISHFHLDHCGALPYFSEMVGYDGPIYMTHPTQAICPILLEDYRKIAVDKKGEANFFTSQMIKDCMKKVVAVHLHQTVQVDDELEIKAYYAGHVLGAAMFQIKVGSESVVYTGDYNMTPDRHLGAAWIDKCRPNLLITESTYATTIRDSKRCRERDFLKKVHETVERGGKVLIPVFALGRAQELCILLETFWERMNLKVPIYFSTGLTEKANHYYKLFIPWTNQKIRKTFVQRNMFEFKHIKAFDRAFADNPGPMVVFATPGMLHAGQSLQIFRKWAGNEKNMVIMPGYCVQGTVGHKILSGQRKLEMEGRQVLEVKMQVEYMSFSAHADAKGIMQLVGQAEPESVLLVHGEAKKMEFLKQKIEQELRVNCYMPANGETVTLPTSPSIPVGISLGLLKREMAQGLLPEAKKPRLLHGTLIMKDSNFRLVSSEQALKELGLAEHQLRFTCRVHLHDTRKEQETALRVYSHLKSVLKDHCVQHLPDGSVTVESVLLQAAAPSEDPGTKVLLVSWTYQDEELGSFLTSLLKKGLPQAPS
UniProt Q5TEJ8: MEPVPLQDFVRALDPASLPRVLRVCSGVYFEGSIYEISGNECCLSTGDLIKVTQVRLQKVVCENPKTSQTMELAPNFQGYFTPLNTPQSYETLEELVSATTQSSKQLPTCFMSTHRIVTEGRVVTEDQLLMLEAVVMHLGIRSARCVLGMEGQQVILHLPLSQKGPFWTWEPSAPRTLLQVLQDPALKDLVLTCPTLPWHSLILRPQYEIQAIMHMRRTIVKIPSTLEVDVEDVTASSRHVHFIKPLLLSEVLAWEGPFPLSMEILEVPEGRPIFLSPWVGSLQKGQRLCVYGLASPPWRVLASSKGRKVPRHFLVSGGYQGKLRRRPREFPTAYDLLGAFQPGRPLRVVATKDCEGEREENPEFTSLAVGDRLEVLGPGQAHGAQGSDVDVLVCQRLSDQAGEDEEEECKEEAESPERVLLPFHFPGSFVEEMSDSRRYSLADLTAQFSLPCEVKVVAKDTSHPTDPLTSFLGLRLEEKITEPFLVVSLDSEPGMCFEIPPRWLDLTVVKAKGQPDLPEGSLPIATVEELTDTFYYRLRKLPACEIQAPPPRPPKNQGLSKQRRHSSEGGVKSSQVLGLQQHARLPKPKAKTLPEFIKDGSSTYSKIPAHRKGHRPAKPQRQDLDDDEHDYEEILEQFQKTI
UniProt Q5T4F4: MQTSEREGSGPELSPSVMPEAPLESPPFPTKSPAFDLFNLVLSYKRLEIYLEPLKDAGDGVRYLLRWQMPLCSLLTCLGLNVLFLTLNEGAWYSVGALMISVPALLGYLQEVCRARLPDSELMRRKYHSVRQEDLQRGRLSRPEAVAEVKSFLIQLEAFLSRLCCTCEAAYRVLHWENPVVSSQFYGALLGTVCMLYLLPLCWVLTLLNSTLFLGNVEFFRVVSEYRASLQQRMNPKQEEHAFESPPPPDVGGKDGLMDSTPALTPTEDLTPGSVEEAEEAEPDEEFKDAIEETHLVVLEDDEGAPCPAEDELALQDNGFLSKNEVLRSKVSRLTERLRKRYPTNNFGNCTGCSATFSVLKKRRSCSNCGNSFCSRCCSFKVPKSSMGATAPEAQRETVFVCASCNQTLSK
UniProt Q49AM1: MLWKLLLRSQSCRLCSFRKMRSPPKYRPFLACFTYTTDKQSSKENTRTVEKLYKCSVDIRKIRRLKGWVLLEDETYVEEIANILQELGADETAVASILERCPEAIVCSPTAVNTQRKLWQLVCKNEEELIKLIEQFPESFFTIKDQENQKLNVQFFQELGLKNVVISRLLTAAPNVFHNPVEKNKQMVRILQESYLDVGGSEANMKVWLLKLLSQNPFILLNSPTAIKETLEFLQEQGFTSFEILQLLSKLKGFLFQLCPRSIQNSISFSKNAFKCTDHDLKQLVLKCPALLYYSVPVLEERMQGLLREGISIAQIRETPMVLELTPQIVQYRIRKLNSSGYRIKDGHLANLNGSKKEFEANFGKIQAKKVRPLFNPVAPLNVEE
UniProt Q5QP82: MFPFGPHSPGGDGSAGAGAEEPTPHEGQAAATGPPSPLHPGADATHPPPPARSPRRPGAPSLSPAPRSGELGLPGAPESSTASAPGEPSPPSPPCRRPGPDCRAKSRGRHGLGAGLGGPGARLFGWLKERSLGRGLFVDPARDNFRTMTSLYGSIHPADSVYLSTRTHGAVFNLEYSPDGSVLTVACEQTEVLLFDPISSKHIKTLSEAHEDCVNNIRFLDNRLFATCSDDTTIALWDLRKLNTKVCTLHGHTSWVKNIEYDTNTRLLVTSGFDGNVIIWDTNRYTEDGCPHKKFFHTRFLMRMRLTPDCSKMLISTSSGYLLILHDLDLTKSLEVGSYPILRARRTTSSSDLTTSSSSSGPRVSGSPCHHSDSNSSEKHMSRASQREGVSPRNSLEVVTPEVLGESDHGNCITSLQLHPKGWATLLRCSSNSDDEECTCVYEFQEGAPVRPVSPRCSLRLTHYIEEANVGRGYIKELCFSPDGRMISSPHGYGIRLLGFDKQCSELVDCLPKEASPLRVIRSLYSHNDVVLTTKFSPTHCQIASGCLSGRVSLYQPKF
UniProt Q5FWF5: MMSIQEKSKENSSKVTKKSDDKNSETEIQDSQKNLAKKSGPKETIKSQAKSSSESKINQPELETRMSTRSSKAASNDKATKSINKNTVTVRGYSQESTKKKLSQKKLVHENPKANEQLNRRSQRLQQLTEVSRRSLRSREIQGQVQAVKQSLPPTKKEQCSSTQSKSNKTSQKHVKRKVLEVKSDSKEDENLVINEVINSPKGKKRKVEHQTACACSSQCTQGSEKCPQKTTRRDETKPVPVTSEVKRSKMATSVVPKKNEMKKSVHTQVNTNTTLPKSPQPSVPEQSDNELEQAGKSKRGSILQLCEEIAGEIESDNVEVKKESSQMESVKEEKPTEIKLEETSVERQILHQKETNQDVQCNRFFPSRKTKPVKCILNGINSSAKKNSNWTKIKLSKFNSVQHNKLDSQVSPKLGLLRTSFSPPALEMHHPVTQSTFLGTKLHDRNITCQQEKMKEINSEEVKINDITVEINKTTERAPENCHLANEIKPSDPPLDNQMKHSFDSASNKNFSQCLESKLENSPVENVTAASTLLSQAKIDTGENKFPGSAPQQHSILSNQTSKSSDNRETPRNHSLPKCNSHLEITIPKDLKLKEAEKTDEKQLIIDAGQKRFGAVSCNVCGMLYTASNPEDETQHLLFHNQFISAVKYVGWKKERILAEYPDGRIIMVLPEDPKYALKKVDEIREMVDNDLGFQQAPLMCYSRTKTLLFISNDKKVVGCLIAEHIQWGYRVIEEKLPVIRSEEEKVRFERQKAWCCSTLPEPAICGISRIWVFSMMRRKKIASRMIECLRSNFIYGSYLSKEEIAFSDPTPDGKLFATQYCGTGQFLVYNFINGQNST

The other results are listed elsewhere or left out. Most entries show no effect beyond the scatter of the controls.

Compound in this experiment: Cc1nc(Nc2ncc(C(=O)Nc3c(C)cccc3Cl)s2)cc(N2CCN(CCO)CC2)n1 [dasatinib]
In words: log2 fold change of tryptic peptide abundance, ligand vs vehicle (limited proteolysis) (log2 ratio); higher = more trypsin-susceptible (destabilized). Conditions: ligand concentration: 5 uM; sample: K562 cleared lysate.
In the case of “UniProt Q5TEC3 (peptide sequence: LHTGERPNLCADCGK, peptide start residue: 282)”, the log2 fold change is -0.434.
As to “PLCH1 (peptide sequence: VISGQQLPK, peptide start residue: 635) (UniProt Q4KWH8)”, the log2 fold change was -0.0177.
Under “ATAD3B (peptide sequence: KRATEEISK, peptide start residue: 419) (UniProt Q5T9A4)” stands -0.0632.
To “UniProt Q5JPI9 (peptide sequence: EHWDAVYER, peptide start residue: 36)” belongs 0.063; to “SPIN4 (peptide sequence: VLALEILPERVPTPR, peptide start residue: 95) (UniProt Q56A73)”, 0.475; to “ARL13B (peptide sequence: NNEFGLVENYK, peptide start residue: 311) (UniProt Q3SXY8)”, 0.592.
Under “GPAT3 (peptide sequence: DIFKEEQQK, peptide start residue: 413) (UniProt Q53EU6)” stands -0.257; under “UniProt Q4AE62 (peptide sequence: NFNSECDTHCGLDTAR, peptide start residue: 217)”, -0.185; under “WDR81 (peptide sequence: SLVLDWVHGR, peptide start residue: 347) (UniProt Q562E7)”, 0.376.
Turning to “UniProt Q5T6J7 (peptide sequence: FYDADDYHPEENRR, peptide start residue: 32)”, the log2 fold change was 0.359.
“STXBP5 (peptide sequence: YTYDEAIHSVAWHHEGK, peptide start residue: 234) (UniProt Q5T5C0)”: the log2 fold change is -0.558.
To “UniProt Q5FWF6 (peptide sequence: SLLLGHER, peptide start residue: 186)” belongs 0.395; to “UniProt Q53H96 (peptide sequence: MLLHEGQHPAQLR, peptide start residue: 219)”, -0.0912.
Under “UniProt Q5JTJ3 (peptide sequence: CLDENLEDASQCKK, peptide start residue: 68)” stands 0.148; under “UniProt Q5TA45 (peptide sequence: LLHGTLIMK, peptide start residue: 478)”, -0.749.
For “RILPL1 (peptide sequence: DVNFSEEEFQKHEGMSER, peptide start residue: 141) (UniProt Q5EBL4)”, the log2 fold change amounted to 0.485.
To “CCDC18 (peptide sequence: LESELENKDEILR, peptide start residue: 343) (UniProt Q5T9S5)” belongs 0.209; to “FRY (peptide sequence: VALESLYR, peptide start residue: 354) (UniProt Q5TBA9)”, -0.0333.
To “UniProt Q56UQ5 (peptide sequence: VKPFMTGAAEQIK, peptide start residue: 111)” belongs 0.125.
Under “PREPL (peptide sequence: VIDLDMFK, peptide start residue: 349) (UniProt Q4J6C6)” stands -0.0987.
As for “TTC38 (peptide sequence: DASESPGENCQHLLAR, peptide start residue: 358) (UniProt Q5R3I4)”, the log2 fold change worked out at 0.276.
To “UniProt Q5MNZ6 (peptide sequence: QSSLASASFLPK, peptide start residue: 267)” belongs 0.169; to “UniProt Q5TEJ8 (peptide sequence: TLLQVLQDPALK, peptide start residue: 177)”, 0.114; to “PPP1R15B (peptide sequence: APFQTSGENEKGCRDSK, peptide start residue: 573) (UniProt Q5SWA1)”, 0.5.
Under “MEX3C (peptide sequence: EILSAAEHFSMIR, peptide start residue: 292) (UniProt Q5U5Q3)” stands 0.28.
For “ZFYVE27 (peptide sequence: SSMGATAPEAQR, peptide start residue: 385) (UniProt Q5T4F4)”, the log2 fold change is -0.00408.
Take “GLE1 (peptide sequence: LYAAIIQLR, peptide start residue: 576) (UniProt Q53GS7)”: the log2 fold change was 0.257.
Under “MTERF2 (peptide sequence: IKDGHLANLNGSKK, peptide start residue: 344) (UniProt Q49AM1)” stands -0.711.
To “KLHL22 (peptide sequence: LHDKLDPSPLR, peptide start residue: 257) (UniProt Q53GT1)” belongs -0.58.
Under “CRY2 (peptide sequence: LHDNPALLAAVR, peptide start residue: 34) (UniProt Q49AN0)” stands -0.283; under “PITRM1 (peptide sequence: FLHTEIR, peptide start residue: 894) (UniProt Q5JRX3)”, -0.313.
As to “CT47A1 (peptide sequence: EPAEEAAEEK, peptide start residue: 210) (UniProt Q5JQC4)”, the log2 fold change came to 0.193.
Consider “BCL7A (peptide sequence: WVPVTEPK, peptide start residue: 48) (UniProt Q4VC05)”, for which the log2 fold change came to 0.0874.
With “RIF1 (peptide sequence: MTGEEGKEVITEIEKK, peptide start residue: 37) (UniProt Q5UIP0)”, the log2 fold change was found to be 0.276.
Under “UniProt Q5QP82 (peptide sequence: YTEDGCPHKK, peptide start residue: 285)” stands 0.764; under “TJAP1 (peptide sequence: GTEEGPGTSHTEGR, peptide start residue: 505) (UniProt Q5JTD0)”, 0.303; under “UniProt Q5FWF5 (peptide sequence: ETNQDVQCNR, peptide start residue: 355)”, 0.406.
To “UniProt Q5T124 (peptide sequence: TLEPIPLK, peptide start residue: 229)” belongs -0.172.
